The whole screen tested about 360,000 compounds, of which about 7,500 (2.1%) were called active. Inconclusive means that the source gave no clear call. Such entries were picked first, then a sample of the others. Calls follow the shape of the dose curve; as a rule, active = well fitted inhibition curve with a large enough effect; inconclusive = small, poorly fitted or top-dose-only effect, or effect the other way; inactive = flat fitted curve, though single readings scatter. Potencies of inconclusive entries are doubtful fits and often do not repeat.
Experiment: Nrf2 qHTS screen for inhibitors; also: nearly all actives have a fitted effect of over 60% in size
Conditions: A549 ARE-Fluc reporter, luciferase luminescence, 18-24 h; activity change, negative = inhibition: at 46 µM (top of the series)
Procedure, shortened: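 A549 ARE_Fluc cells, 5000/well, 5% FBS OPTI-MEM; compounds in dose-response, 18-24 h at 37 °C/5% CO2; CellTiter-Fluor viability read (Ex 405/Em 525), then BugLite luciferase luminescence = Nrf2 activity.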
% is scaled to controls: 0 for no effect and ±100 for the full control effect; potency is read from the fitted curve at half-maximal effect.

SMILES | activity change, negative = inhibition | Potency
COc1ccc(-c2cc(=O)oc3c4c(ccc23)OCN(Cc2cccc(OC)c2)C4)cc1 | inactive: 18.6% | –
COC(=O)c1ccccc1NC(=O)Cn1c(=O)n(CCCC(=O)NCc2ccccc2OC)c(=O)c2ccccc21 | – | inconclusive: 1.84 µM [activator, partial curve, poor fit]
COc1cccc(CN2C(=O)C(C)Oc3ccccc32)c1 (stereo not drawn) | – | inconclusive: 25.9 µM [falling, single point]
CC1(c2ccc([N+](=O)[O-])cc2)NC(=O)N(CC(=O)c2ccc3c(c2)OCO3)C1=O (stereo not drawn) | – | inconclusive: 3.66 µM [activator, single point]
CN(C)CCNC(=O)c1sc2cccc(F)c2c1Cl | inactive: -6.67% | –
Cc1ccc(C)c(NC(=O)C(c2ccccc2)N2Cc3ccccc3C2=O)c1 (stereo not drawn) | inactive: 13.5% | –
CCOc1ccc(-n2nc(CO)c(C(=O)NCc3cccc(OC)c3)n2)cc1 | – | inconclusive: 16.4 µM [activator, single point]
CC(C)(C)C1CCC(C(=O)Nc2ccccc2)CC1 (stereo not drawn) | – | inconclusive: 14.6 µM [falling, partial curve, poor fit]
CC(=O)c1ccc(NC(=O)c2nc3nc(C)cc(C(F)F)n3n2)cc1 | inactive: 9.64% | –
CCCS(=O)(=O)N1CCC(C(=O)NCCC(C)C)CC1 | inactive: -26.5% | –
COc1cc2cc(CNc3ccccc3)c(=O)n(CC(=O)Nc3cc(C)cc(C)c3)c2cc1OC | – | inconclusive: 18.4 µM [activator, partial curve, poor fit]
O=C(CSc1ncnc2nc[nH]c12)N1CCN(c2ccc(Cl)cc2)CC1 | – | inconclusive: 8.2 µM [falling, partial curve, poor fit]
COc1ccc(/C(N)=N/OC(=O)c2ccc(C)c([N+](=O)[O-])c2)cc1 | – | inconclusive: 18.4 µM [activator, partial curve]
Cc1[nH]n(-c2ccccc2)c(=O)c1N=Nc1ccccc1C(=O)O | – | inconclusive: 23.1 µM [falling, partial curve]
O=C(NCCOc1nc(N2CCCCC2)nc(N2CCCCC2)n1)Nc1ccccc1 | – | inconclusive: 23.1 µM [falling, single point]
Oc1ccc(N2CCN(c3ncnc4sc(-c5ccccc5)cc34)CC2)cc1 | – | active: 20.6 µM
O=C(c1cccn2c(=O)c3ccc(Cl)cc3nc12)N1CCN(Cc2ccc3c(c2)OCO3)CC1 | inactive: 2.28% | –
CC(C)(C)c1ccc(C(=O)N2CCC(C(=O)NC3CC3)CC2)cc1 | – | inconclusive: 13 µM [activator, partial curve, poor fit]
Cc1ccc(-c2cc(C(F)(F)F)nn2-c2ccc(S(N)(=O)=O)cc2)cc1 | – | inconclusive: 25.9 µM [falling, partial curve, poor fit]
COc1ccc(-n2c(SCC(=O)Nc3nccs3)nnc2-c2ccc(Cl)cc2)cc1 | – | inconclusive: 10.3 µM [falling, partial curve, poor fit]
Cc1ccc(C)c(NC(=O)c2cc3ccccc3o2)c1 | – | inconclusive: 2.59 µM [activator, full curve]
COc1ccc(C2C(C(C)=O)=C(O)C(=O)N2c2nc3ccccc3s2)cc1OC (stereo not drawn) | inactive: -5.82% | –
CSc1ncc(C(=O)Nc2cc(Cl)ccc2C)c(-c2ccccc2)n1 | inactive: 8.75% | –

Shown as tab-separated lines: four of the compounds above.
SMILES	activity change, negative = inhibition	Potency
CC1(c2ccc([N+](=O)[O-])cc2)NC(=O)N(CC(=O)c2ccc3c(c2)OCO3)C1=O (stereo not drawn)	–	inconclusive: 3.66 µM [activator, single point]
CN(C)CCNC(=O)c1sc2cccc(F)c2c1Cl	inactive: -6.67%	–
Cc1ccc(C)c(NC(=O)C(c2ccccc2)N2Cc3ccccc3C2=O)c1 (stereo not drawn)	inactive: 13.5%	–
CCOc1ccc(-n2nc(CO)c(C(=O)NCc3cccc(OC)c3)n2)cc1	–	inconclusive: 16.4 µM [activator, single point]

Following part:

SMILES | activity change, negative = inhibition | Potency
CCOC(=O)c1ccc(NC(=O)c2ccc(C)c(S(=O)(=O)N3CCOCC3)c2)cc1 | – | inconclusive: 13 µM [falling, single point]
CCN1/C(=C/c2ccc3cc(C)ccc3[n+]2CC)Sc2cc(C)ccc21 | – | active: 4.61 µM
CC1CCN(C(=O)C2CCN(C(=O)c3cc4sccc4n3Cc3ccc(F)cc3)CC2)CC1 | inactive: -51.4% | –
CCn1c(CNc2cccc(Cl)c2)nnc1SCc1ccccc1 | – | inconclusive: 29.1 µM [falling, single point]
CCn1c(CNC(=O)Cc2ccc(OC)cc2)nnc1SCC(=O)c1ccc(Br)cc1 | – | inconclusive: 2.31 µM [falling, partial curve]
COc1ccc(C(=O)c2c(C)oc3ccc(O)c(CN4CCOCC4)c23)cc1 | – | inconclusive: 6.51 µM [falling, partial curve, poor fit]
CCN(CCN(C)C)C(=O)C1CCN(S(=O)(=O)c2c(C)noc2/C=C/c2ccccc2F)CC1 | inactive: -14.9% | –
COC(=O)Cc1c(C)c2cc3c(c(C)c2oc1=O)OCN(CCc1ccc(OC)cc1)C3 | inactive: 9.77% | –
COc1ccc(-c2csc(Nc3ccccn3)n2)cc1 | – | inconclusive: 0.291 µM [activator, full curve, poor fit]
CC1CC(C)CN(CCCNC(=O)c2ccc3c(c2)NC(=O)C(N2CCCCC2)S3)C1 (stereo not drawn) | – | inconclusive: 23.1 µM [falling, single point]
O=C(Nc1ccc2c(c1)nc1n2CCSC1)c1ccco1 | – | inconclusive: 23.1 µM [falling, single point]
Cc1ccccc1OCC(=O)O/N=C(\N)c1ccncc1 | – | inconclusive: 2.59 µM [activator, full curve]
Cc1cc(C)c2c(n1)SCCN2C(=O)Nc1ccc(C(=O)Nc2ccc(C(C)C)cc2)cc1 | inactive: 0.481% | –
CCN(CC)c1ccc2cc(-c3nc(-c4cc(OC)c(OC)c(OC)c4)no3)c(=O)oc2c1 | inactive: 0.71% | –
O=C(CCn1c(=O)[nH]c2ccsc2c1=O)N1CCc2ccccc2C1 | inactive: -25.9% | –
O=S(=O)(Nc1ccc(Cc2ccncc2)cc1)c1cccs1 | – | inconclusive: 16.4 µM [falling, single point]
Cc1ccc(N(CC(=O)NC2CCCCCC2)S(=O)(=O)c2c(C)nn(C)c2C)cc1 | – | inconclusive: 32.6 µM [falling, single point]
C=C(CCC(=O)c1ccccc1)C(=O)c1ccccc1 | inactive: -13.2% | –
O=C(O)c1cccc(N/N=C/c2ccc(OC(F)(F)F)cc2)c1 | – | inconclusive: 1.84 µM [activator, full curve]
Cc1ccc(Nc2c(-c3ccccn3)nc3ccc(C)cn23)cc1 | – | inconclusive: 29.1 µM [falling, single point]
Cc1ccc(N=Nc2c(N)n(-c3ccccc3)[nH]c2=O)cc1 | – | inconclusive: 11.6 µM [activator, partial curve, poor fit]
COc1cc(NC(=O)c2ccc(-n3cnc4cccnc43)cc2)cc(OC)c1 | inactive: -6.93% | –
CCCCCC(=O)Nc1ccc(Cl)cn1 | – | inconclusive: 2.91 µM [activator, full curve, poor fit]

SMILES | activity change, negative = inhibition | Potency
COc1ccc(/C=C/C(=O)Nc2ccc3nc(N4CCCCC4)cc(C)c3c2)cc1OC | inactive: 10% [at 9.27 µM] | –
c1cncc(CNc2cccc(-c3nc4ccccc4[nH]3)c2)c1 | – | inconclusive: 5.17 µM [activator, single point]
Cc1cn2c(=O)cc(COc3ccccc3NC(=O)c3ccc(Cl)cc3)nc2s1 | inactive: -14.1% | –
COc1ccc(CN2CCNC(=O)C2CC(=O)N(C)Cc2ccon2)c(F)c1 (stereo not drawn) | – | inconclusive: 1.84 µM [falling, single point]
O=C(CSc1nnc(COc2ccc(Cl)cc2)o1)N1CCCCC1 | – | inconclusive: 16.4 µM [falling, partial curve, poor fit]
Cc1ccccc1-c1noc(-c2cc(-c3ccc(F)cc3)n[nH]2)n1 | – | inconclusive: 32.6 µM [falling, single point]
CCCCCCC[C@@H](C/C=C/CCC(=O)N(C)C/C(=C/Cl)C/C(=C\C(=O)N1C[C@H](O)CC1=O)OC)OC | – | inconclusive: 18.4 µM [falling, single point]
O=C1c2ccccc2C(=O)c2c(Nc3ccc(CCO)cc3)ccc(O)c21 | – | inconclusive: 6.51 µM [falling, single point]
CC1CCCCC1NC(=O)CCNS(=O)(=O)c1ccc2c(c1)CCC(=O)N2 (stereo not drawn) | – | inconclusive: 16.4 µM [falling, partial curve, poor fit]
Cc1cc(C)cc(NC(=O)C2CCN(S(=O)(=O)c3ccc4c(c3)oc(=O)n4C)CC2)c1 | inactive: -18.3% | –
O=C(Nc1ccc(N2CCOCC2)cc1)c1cc2ccccc2o1 | – | inconclusive: 1.64 µM [activator, partial curve, poor fit]
O=C(Cc1cccs1)NCc1cccc(Br)c1 | – | inconclusive: 8.2 µM [activator, partial curve]
CC(=O)Oc1ccc(C(=O)Nc2cc(C)on2)cc1 | – | inconclusive: 23.1 µM [activator, single point]
Cc1ccc(CNC(=O)C2CCC(=O)N(CC3CCCCC3)C2)o1 (stereo not drawn) | inactive: 4.18% | –
COc1cccc(Oc2coc3cc(OC(=O)N4CCOCC4)ccc3c2=O)c1 | – | inconclusive: 20.6 µM [falling, single point]
O=C(/C=C/c1ccco1)NC1=NCCS1 | – | inconclusive: 3.26 µM [activator, partial curve]
COc1cccc(N(C(=O)Cc2cccs2)C(C(=O)NC2CCCC2)c2ccncc2)c1 (stereo not drawn) | – | inconclusive: 23.1 µM [activator, partial curve, poor fit]
COc1ccc(CC(=O)Nc2ccc(C(=O)Nc3ccccc3C(=O)O)cc2)cc1OC | – | inconclusive: 5.8 µM [falling, partial curve]
Cc1cc(NC(=O)c2ccco2)cc(-c2nc3cc(Cl)ccc3o2)c1O | – | inconclusive: 29.1 µM [falling, single point]
N#Cc1nc(Nc2cccc([N+](=O)[O-])c2)nc(NC2CCCC2)n1 | inactive: 16.4% | –
Cc1cccc(N2CCN(C(=O)/C=C/c3cccs3)CC2C)c1 (stereo not drawn) | – | inconclusive: 23.1 µM [falling, partial curve, poor fit]
COc1ccc(Cl)cc1NC(=O)CN1C(=O)CSc2ccc(S(=O)(=O)N3CCCC3)cc21 | – | inconclusive: 16.4 µM [falling, single point]

Taken from above.
COc1cccc(Oc2coc3cc(OC(=O)N4CCOCC4)ccc3c2=O)c1 | Potency: inconclusive: 20.6 µM [falling, single point]
Cc1ccccc1-c1noc(-c2cc(-c3ccc(F)cc3)n[nH]2)n1 | Potency: inconclusive: 32.6 µM [falling, single point]
